From patent US5902815A, “Use of 5HT-2A serotonin agonists to prevent adverse effects of NMDA receptor hypofunction” (priority 1996, dated 1999)

Tests used:
[1] = system: vacuolated pyramidal neurons of posterior cingulate and retrosplenial (PC/RS) cortices, MK-801 neurotoxicity; assay: Blocking MK-801 neurotoxicity (vacuolated PC/RS cortical neurons) in rats by serotonergic agents; format: in vivo, adult female rats; settings: Rattus norvegicus, Pyramidal neuron, ip, 4 h, read-out: ED50 against the neurotoxic action of MK-801, lisuride; n=45
Method: Each test rat also received a 5HT-2A/2C agonist drug (LSD, DOB, DOI, or DOM), while control rats received an inert carrier liquid as a placebo. After 4 hours, the rats were sacrificed, and brain tissue from specific regions which are susceptible to NR/hypo damage (layers III and IV of the posterior cingulate (PC) and retrosplenial (RS) cortices) were examined for vacuoles in the neurons, which are an indicator of toxic neuronal injury induced by NMDA receptor hypofunction.
DOI was purchased from Research Biochemicals International (Natick, Mass.).
For each test agent, at least 20 rats were used, and at least four dosages were tested.
The rats were sacrificed four hours after drug administration, and brain tissue from the PC/RS region was histopathologically evaluated by previously described methods using double-blinded techniques (Olney et al 1991). The number of vacuolated PC and RS neurons were counted on each side of the brain at a rostrocaudal level immediately posterior to where the corpus callosum ceases decussating across the midline (approximately 5.6 mm caudal to Bregma; Paxinos & Watson, The Rat Brain in Stereotaxic Coordinates, 2d Ed., 1986).
This drug is widely used in Europe, and is a 5HT-2A agonist but a 5HT-2C antagonist.
It is described in Nozulak et al 1993.

5HT2C receptors = settings: Burris et al 1991 or other literature; cited from earlier work
[2] = system: D2 class of dopamine receptors; settings: cited from earlier work

CCN(CC)C(=O)N[C@H]1C=C2c3cccc4[nH]cc(c34)C[C@H]2N(C)C1 [Lisuride]
ED50 [1]: 0.17 mg/kg | activity at 5HT-2C receptors (5HT2C receptors): antagonism and suppression of activity | activity at D2 dopamine receptors [2]: agonist at the D2 class of dopamine receptors
